Source: ChEMBL document CHEMBL3988442, “University of Dundee, Small-Polar-MMV Screening Library” (2021).

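Viability assay of Plasmodium falciparum sporozoites; the read-out is not stated. The concentration is filed as 10 mM, unlikely as a test dose, so the dose is not known. Higher reads as lower viability (inferred: compounds with an IC50 in retests scored well above the rest). Strong results were mostly tested again. About 34,000 compounds were tested under these conditions; 0.84% (about 280) showed 50% or more at least once.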

Each number is a percent effect as filed.
How 0% and 100% were set is not recorded. Most values in the screen are low, and negative values occur.
This is an unselected part of the compounds tested.
Two or more numbers in one place are separate tests of the same structure; such repeats can differ widely.

Result for N#Cc1ccc(CN2CCN(C(=O)c3cc(C4CC4)[nH]n3)CC2)cc1 was 2.256%. Cc1ccc(N2CCC3(CCCN(C(=O)c4cccnc4)C3)C2)nn1.O=C(O)C(F)(F)F (centres unmarked) read 5.928%. O=C1CC(c2ccccc2)C2(CCN(Cc3ccccn3)CC2)N1 (centres unmarked) read -1.807%. With Cc1cnn(C2CN(Cc3noc(C4CC4)n3)C2)c1 the screen gave 2.997%. FC(F)(F)C1CCc2nnc(CNCc3ccsc3)n2C1 (centres unmarked) read 6.459%.

For [H][C@@]12C[C@H](C(=O)N3CCCC3)[C@@]([H])(CN(S(=O)(=O)CCC)C1)O2 the result was -5.342%. Result for CCNc1cc2c(nn1)CCN(C(=O)Cc1c(C)nn(C)c1C)C2 was 15.5%. CNC(=O)C1=NOC2(CCN(Cc3nccs3)C2)C1 (centres unmarked) read -8.029%. With CCCc1nc(CN2CCOC(Cn3cncn3)C2)cs1 (centres unmarked) the screen gave -31.22% and -29.51% and 9.012%. Cc1nnc(NC(=O)N2CCN(Cc3ccc(F)cc3)C(=O)C2)s1 gave -2.977%.

Result for COCCn1ccc(NC(=O)Nc2ccc(C)cc2)n1 was -15.87%. With COc1cncc(N2CCN(Cc3ccco3)CC2)n1 the screen gave -6.857%. Cc1c[nH]nc1C1CCN(C(=O)C2CCC2)CC1 gave 10.86%. [H][C@]12C[C@H](NC(=O)c3cscn3)[C@@]1([H])CN(S(=O)(=O)c1ccc(C)cc1)C2 gave 6.328%. For O=C(O)C(F)(F)F.O=C(O)C(F)(F)F.c1ccc(CN2CCc3ncnc(-c4ccncc4)c3CC2)nc1 the result was 26.43%.

For CC(C)c1nnc2n1CCN(C(=O)c1ccc(OCC3CC3)cc1)C2 the result was -4.682%. NC(=O)c1c[nH]nc1NC(=O)c1ccc(Cl)cc1 gave -1.627%. With CC(CO)NC(=O)c1ccc2[nH]/c(=N\S(C)(=O)=O)sc2c1 (centres unmarked) the screen gave -5.403%. Result for Cl.Cl.[H][C@@]12CN(Cc3ccccc3F)C[C@]1([H])C2CN (some centres unmarked) was 8.319%. CCN(C1CCS(=O)(=O)C1)S(=O)(=O)c1cccc2cc(C)cnc12 (centres unmarked) read 7.579%.

CC(C(=O)NCCCn1ccnc1)n1cc(Br)cn1 (centres unmarked) gave 11.34%. CC(=O)N1CCCCC1c1nc2c(c(NC3CCCC3)n1)CN(C)CC2 (centres unmarked) gave -3.347%. Result for [H][C@]12CN(C(=O)c3scnc3C)CC[C@@]1(O)CCN(C(=O)N1CCCC1)C2 was 0.4325%. CCN1CC(C(=O)N2CCC(Oc3ccccc3C)CC2)CC1=O (centres unmarked) gave 1.59%. COCCN1CCC2(CC1)CC(NC(=O)CN(C)C)c1ccccc1O2.O=C(O)C(F)(F)F.O=C(O)C(F)(F)F (centres unmarked) gave 7.968%.

With O=C(NCc1cc[nH]n1)NCC(c1ccco1)N1CCCC1 (centres unmarked) the screen gave -7.843%. Result for CC1CN(CC(=O)Nc2nncs2)CCN1c1nccs1 (centres unmarked) was 9.106%. For COCC(=O)N1CCC2(CCCN(Cc3cnn(C)c3)C2)C1 (centres unmarked) the result was 7.239%. Result for Cc1cc(F)ccc1CN1CCC(O)(CN2CCCCC2)C1 (centres unmarked) was 0.4292%. With Cc1cc(O)c(OCC(=O)/N=c2\[nH]c(C)cs2)cn1 the screen gave -109.1% and -101%.

COc1ccc(CNCc2ccnc(N3CCCC3)c2)c(OC)c1.Cl read 4.917%. For Cc1ccc(NS(=O)(=O)c2cc3c(c(C(=O)O)c2)OCCO3)cc1C the result was 3.769%. Result for Cc1ccc(C(=O)NS(=O)(=O)c2ccccc2Cl)c(=O)[nH]1 was 11.36%. With CC(=O)c1ccc(-n2c(C)cn(CCS(C)(=O)=O)c2=O)cc1 the screen gave -4.995%. For O=C(O)C(F)(F)F.O=C(O)C(F)(F)F.[H][C@@]12C[C@@H](C(=O)NC)N(C(C)C)[C@]1([H])CN(Cc1c(C)noc1C)C2 the result was 6.559%.

O=C(O)C(F)(F)F.[H][C@@]12CN(C)C[C@]1(C(=O)NC)CCCN2c1ncccn1 read 1.899%. CC(C)CC(=O)N1CCCC2(CC(C(=O)Nc3ccccc3)=NO2)C1 (centres unmarked) read 9.386%. With CC(NC(N)=O)C(=O)N1CCCN(Cc2nccn2C(C)C)CC1 (centres unmarked) the screen gave -19.57%. Result for Cc1ccc(NC2CCN(C(=O)c3cc4c(s3)CCC4)CC2)nn1 was 12.22%. O=C(C1CCCO1)N1CCc2ncnc(NC3CCC3)c2CC1.O=C(O)C(F)(F)F (centres unmarked) read 0.361%.

For CCc1nc2c(s1)C(N(C)C(=O)c1csnn1)CCC2 (centres unmarked) the result was 5.606%. For Cc1ccc(N2CCCC(NCc3cscn3)C2)nn1 (centres unmarked) the result was 4%. Result for Cc1nn(CC(C)C)c(N(C)C)c1CNCc1ccnn1C was 14.96%. With O=C(O)c1ccccc1-c1ccc(CN2CCC(CO)CC2)cn1 the screen gave 3.121%. COC(=O)C1CCN(C(=O)c2ccc(N(C)S(C)(=O)=O)c(C)c2)CC1 read 8.628%.

Result for Cc1cc(C)n(CC(=O)N2CCCC2c2cc3cccnc3[nH]2)n1 (centres unmarked) was -2.196%. For COCCN1CCC2(CC1)CN(C(=O)C1CC1)c1ccc(F)cc12.O=C(O)C(F)(F)F the result was 11.46%. COCCN1CCC2(CC1)CN(C(=O)c1ccccc1)CCO2.O=C(O)C(F)(F)F read -1.489%. For CC(C)n1cc(CN2CCCN(C(=O)C(C)n3cccn3)CC2)cn1 (centres unmarked) the result was 2.277%. CCCC(O)CN1CCC(=O)N(CC2CC2)Cc2cc3c(cc21)OCO3 (centres unmarked) gave -14.44%.

For COC(=O)CCC(=O)N1CCc2[nH]nc(-c3ccc4c(c3)OCO4)c2C1 the result was 2.999%. Result for Cc1ccc2c(n1)N(CCN(C)C)CCN(C(=O)c1ccco1)C2 was -1.302%. With Cc1nccnc1CCC1COCCN1C(=O)CCc1c(C)noc1C (centres unmarked) the screen gave 5.499%. Result for COC(=O)c1cccn1C1CCN(C(=O)c2cn[nH]c2C)CC1 was -5.397%. With CCCS(=O)(=O)N1CCC(Nc2c(F)cc(C#N)cc2F)CC1 the screen gave 2.286%.

Result for O=C(O)C(F)(F)F.c1ccc(CN2CCc3ncnc(-c4ccoc4)c3CC2)nc1 was 5.219%.

Once more, the final 5:

compound,percent effect
Cc1ccc2c(n1)N(CCN(C)C)CCN(C(=O)c1ccco1)C2,-1.302
Cc1nccnc1CCC1COCCN1C(=O)CCc1c(C)noc1C (centres unmarked),5.499
COC(=O)c1cccn1C1CCN(C(=O)c2cn[nH]c2C)CC1,-5.397
CCCS(=O)(=O)N1CCC(Nc2c(F)cc(C#N)cc2F)CC1,2.286
O=C(O)C(F)(F)F.c1ccc(CN2CCc3ncnc(-c4ccoc4)c3CC2)nc1,5.219